Laboratory results from PMC10044308.
No constants are given. Whether binding was seen depends on the method and setting. In cells and extracts the contact can be indirect. Some results given as binding are weak or reduced against the parent protein; the word gives no strength. For part of these data: Sequences can lack the tags named with a protein. Values belong to the molecule of their own block, whether it stands above or below them.

Amino acid sequences for entries named in this document (tags omitted). A change or cut given only in a name is not applied to a line headed by its entry.
UniProt O14744: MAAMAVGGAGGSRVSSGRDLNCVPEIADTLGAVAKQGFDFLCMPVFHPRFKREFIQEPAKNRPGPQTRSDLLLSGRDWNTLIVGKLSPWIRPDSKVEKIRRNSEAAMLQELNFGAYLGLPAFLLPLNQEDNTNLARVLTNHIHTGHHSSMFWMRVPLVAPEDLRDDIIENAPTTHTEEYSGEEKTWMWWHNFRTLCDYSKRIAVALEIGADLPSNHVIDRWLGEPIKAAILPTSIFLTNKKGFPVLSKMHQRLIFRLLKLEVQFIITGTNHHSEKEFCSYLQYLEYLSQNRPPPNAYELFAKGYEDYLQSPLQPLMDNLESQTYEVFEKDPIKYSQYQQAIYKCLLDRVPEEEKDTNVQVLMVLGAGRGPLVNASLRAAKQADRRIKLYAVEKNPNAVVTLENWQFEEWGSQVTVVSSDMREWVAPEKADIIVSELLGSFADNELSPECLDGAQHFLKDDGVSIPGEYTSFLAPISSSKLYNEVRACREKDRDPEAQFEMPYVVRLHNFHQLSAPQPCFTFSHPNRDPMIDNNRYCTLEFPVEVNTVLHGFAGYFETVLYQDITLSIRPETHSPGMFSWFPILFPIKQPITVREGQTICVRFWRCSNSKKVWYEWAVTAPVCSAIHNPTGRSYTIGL
UniProt P06733: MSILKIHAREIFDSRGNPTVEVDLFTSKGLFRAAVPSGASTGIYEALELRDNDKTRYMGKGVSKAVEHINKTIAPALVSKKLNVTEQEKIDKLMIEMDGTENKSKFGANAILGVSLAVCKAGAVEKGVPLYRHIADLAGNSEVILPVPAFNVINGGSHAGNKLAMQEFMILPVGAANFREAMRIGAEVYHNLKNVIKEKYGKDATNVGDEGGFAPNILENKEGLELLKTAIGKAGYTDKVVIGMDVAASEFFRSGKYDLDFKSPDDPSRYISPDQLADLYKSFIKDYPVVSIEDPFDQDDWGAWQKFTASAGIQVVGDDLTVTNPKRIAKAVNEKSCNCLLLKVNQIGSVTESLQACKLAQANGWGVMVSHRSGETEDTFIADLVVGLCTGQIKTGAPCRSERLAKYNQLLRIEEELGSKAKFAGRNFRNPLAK
UniProt P04406: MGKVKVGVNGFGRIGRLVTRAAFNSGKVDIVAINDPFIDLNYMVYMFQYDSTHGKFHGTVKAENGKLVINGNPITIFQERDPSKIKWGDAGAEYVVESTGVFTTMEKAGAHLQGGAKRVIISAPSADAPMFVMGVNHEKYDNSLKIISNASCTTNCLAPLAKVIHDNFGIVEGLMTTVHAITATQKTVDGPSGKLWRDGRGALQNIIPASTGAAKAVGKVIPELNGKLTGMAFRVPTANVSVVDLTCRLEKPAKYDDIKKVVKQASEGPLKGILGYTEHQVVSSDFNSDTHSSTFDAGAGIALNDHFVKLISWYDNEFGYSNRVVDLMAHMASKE

Columns and labels:
[1] = target: Flag-tagged PRMT5 (protein arginine methyltransferase 5) (human) (UniProt O14744); assay: co-IP; called Flag pull-down: Flag-conjugated beads added to NP40 lysate of cells expressing the Flag-tagged bait, overnight at 4°C, washed three times with PBS, western blotting
[2] = target: endogenous ENO1 of A2780 cells (human (endogenous in A2780)) (UniProt P06733); assay: co-IP; A2780 extracts immunoprecipitated with anti-ENO1 or control rabbit IgG, western blotted by PRMT5 antibody
[3] = target: Flag-tagged ENO1 WT (human) (UniProt P06733); assay: co-IP; called Flag pull-down: Flag-ENO1 WT, R9K or R412K expressed in 293T cells, Flag beads, western blotting for endogenous ENO1; also in cells with knockdown of PRMT5 (Figure S3F)
[4] = target: Flag-tagged ENO1 R412K (human) (UniProt P06733); assay: as above
[5] = target: Flag-tagged GAPDH (UniProt P04406); assay: co-IP; called Flag pull-down: Flag-conjugated beads added to NP40 lysate of cells expressing the Flag-tagged bait, overnight at 4°C, washed three times with PBS, western blotting
[6] = target: T1, Flag-tagged HK2 (UniProt P52789); assay: as above
T1 sequence: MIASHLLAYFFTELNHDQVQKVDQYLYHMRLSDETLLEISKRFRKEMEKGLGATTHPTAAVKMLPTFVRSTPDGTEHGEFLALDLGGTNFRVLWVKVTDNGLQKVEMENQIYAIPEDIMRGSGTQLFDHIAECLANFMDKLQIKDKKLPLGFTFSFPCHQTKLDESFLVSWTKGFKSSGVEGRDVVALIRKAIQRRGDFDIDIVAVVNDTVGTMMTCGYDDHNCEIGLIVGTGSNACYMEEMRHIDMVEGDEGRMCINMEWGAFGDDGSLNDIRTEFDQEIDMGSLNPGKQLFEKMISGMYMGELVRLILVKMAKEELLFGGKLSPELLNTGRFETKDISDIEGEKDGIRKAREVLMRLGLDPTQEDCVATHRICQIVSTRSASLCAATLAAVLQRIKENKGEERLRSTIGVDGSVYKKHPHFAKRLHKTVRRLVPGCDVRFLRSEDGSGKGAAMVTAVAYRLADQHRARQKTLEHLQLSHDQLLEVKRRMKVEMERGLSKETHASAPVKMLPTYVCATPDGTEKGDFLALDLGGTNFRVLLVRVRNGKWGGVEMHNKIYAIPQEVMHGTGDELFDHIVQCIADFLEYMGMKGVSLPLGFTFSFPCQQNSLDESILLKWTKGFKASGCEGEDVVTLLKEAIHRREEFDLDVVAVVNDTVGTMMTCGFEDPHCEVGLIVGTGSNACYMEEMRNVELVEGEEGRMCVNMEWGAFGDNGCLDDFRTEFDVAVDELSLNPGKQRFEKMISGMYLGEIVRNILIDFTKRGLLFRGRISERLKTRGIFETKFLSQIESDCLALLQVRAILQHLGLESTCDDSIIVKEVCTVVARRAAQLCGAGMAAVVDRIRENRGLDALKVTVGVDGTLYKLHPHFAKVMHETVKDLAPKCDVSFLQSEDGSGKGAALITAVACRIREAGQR

[7] = target: GST-tagged ENO1 expressed in 293T cells (human) (UniProt P06733); assay: pull-down; GST pull-down: GST-conjugated beads added to NP40 lysate of 293T cells expressing GST-ENO1, overnight at 4°C, washed with PBS, western blotting for endogenous PRMT5

binding [1]: binds
Molecule: glyceraldehyde-3-phosphate dehydrogenase (GAPDH) in HEK293T cells (from UniProt P04406 1-335) (enzyme)

binding [2]: binds
Molecule: endogenous PRMT5 of A2780 cells (from UniProt O14744 1-637) (enzyme)

binding [3]: binds
binding [4]: binds
binding [1]: binds
Molecule: alpha-enolase (ENO1) in HEK293T cells (from UniProt P06733 1-434) (enzyme)

binding [5]: binds
binding [6]: binds
binding [7]: binds
Molecule: endogenous PRMT5 of 293T cells (from UniProt O14744 1-637) (enzyme)

binding [1]: binds
B1: hexokinase 2 (HK2) in HEK293T cells (enzyme, UniProt P52789 1-917)
chain: T1 sequence
